# The list shows a part of the results. Many values rest on one well or one pass, so single values are uncertain.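 The apoptosis fraction was the count of cleaved-PARP antibody-stained nuclei relative to all DNA-stained nuclei, imaged in 1,536-well plates. Screening doses were set so most cells survived, and baseline and induced cleaved-PARP levels vary greatly across cell lines.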
# Columns and labels:
# Experiment in all cases: cleaved PARP positive nuclei fraction relative to DMSO control; melanoma cells; higher = more apoptosis
# Conditions in all cases: library dose: low library concentration; 72 h
# MZ2-MEL = test system: MZ2-MEL
# MeWo = test system: MeWo
# RPMI7951 = test system: RPMI7951
# RVH-421 = test system: RVH-421
# SkMel28 = test system: SkMel28
# SkMel2 = test system: SkMel2
# SkMel30 = test system: SkMel30
# SkMel5 = test system: SkMel5
# UACC257 = test system: UACC257
# UACC62 = test system: UACC62
# WM115 = test system: WM115
# WM1716 = test system: WM1716
# WM1745 = test system: WM1745
# WM3526 = test system: WM3526
# WM3619 = test system: WM3619
# WM451Lu = test system: WM451Lu
Compound,cleaved PARP positive nuclei fraction (MZ2-MEL) [%],cleaved PARP positive nuclei fraction (MeWo) [%],cleaved PARP positive nuclei fraction (RPMI7951) [%],cleaved PARP positive nuclei fraction (RVH-421) [%],cleaved PARP positive nuclei fraction (SkMel28) [%],cleaved PARP positive nuclei fraction (SkMel2) [%],cleaved PARP positive nuclei fraction (SkMel30) [%],cleaved PARP positive nuclei fraction (SkMel5) [%],cleaved PARP positive nuclei fraction (UACC257) [%],cleaved PARP positive nuclei fraction (UACC62) [%],cleaved PARP positive nuclei fraction (WM115) [%],cleaved PARP positive nuclei fraction (WM1716) [%],cleaved PARP positive nuclei fraction (WM1745) [%],cleaved PARP positive nuclei fraction (WM3526) [%],cleaved PARP positive nuclei fraction (WM3619) [%],cleaved PARP positive nuclei fraction (WM451Lu) [%]
"CC1(C)CCC(c2ccc(Cl)cc2)=C(CN2CCN(c3ccc(C(=O)NS(=O)(=O)c4ccc(N[C@H](CCN5CCOCC5)CSc5ccccc5)c(S(=O)(=O)C(F)(F)F)c4)cc3)CC2)C1 + Cn1cncc1[C@@](N)(c1ccc(Cl)cc1)c1ccc2c(c1)c(-c1cccc(Cl)c1)cc(=O)n2C [tipifarnib] (first compound 0.4 µM, partner dose 0.01 µM)",466,133,74.8,113,152,251,122,263,249,78.4,527,223,803,74.5,157,52.3
"C[C@]1(O)C[C@@H](c2nc(-c3ccc4ccc(-c5ccccc5)nc4c3)c3c(N)nccn32)C1 + NCC(=O)Nc1ccc(-n2nc(C(F)(F)F)cc2-c2ccc3c(ccc4ccccc43)c2)cc1 [OSU03012] (first compound 0.4 µM, partner dose 1 µM)",92.8,62.6,58.8,205,237,139,124,80.4,195,168,48,149,122,247,140,145
"NC1(c2ccc(-c3nc4ccn5c(=O)[nH]nc5c4cc3-c3ccccc3)cc2)CCC1 + C=CCn1c(=O)c2cnc(Nc3ccc(N4CCN(C)CC4)cc3)nc2n1-c1cccc(C(C)(C)O)n1 [MK1775] (first compound 0.4 µM, partner dose 0.02 µM)",126,111,88.1,61.2,186,66.8,90.9,215,146,236,929,205,145,191,96,96.1
"C[C@@H](N)c1ccc(C(=O)Nc2ccnc3[nH]ccc23)cc1 + Oc1nc(-c2ccc(C(F)(F)F)cc2)nc2c1CSCC2 [XAV939] (first compound 0.4 µM, partner dose 2 µM)",175,110,153,394,325,79.2,44,176,180,188,38.4,97.2,172,36,69.2,97.8
"NC1(c2ccc(-c3nc4ccn5c(=O)[nH]nc5c4cc3-c3ccccc3)cc2)CCC1 + COc1ccc(COc2ccc(Cc3cnc(N)nc3N)cc2OC)cc1 [GW2580] (first compound 0.4 µM, partner dose 1 µM)",102,48.2,119,44.4,363,72,94.9,88.9,599,189,300,54.6,212,130,121,51.1
"CC(=O)O[C@@]12CO[C@@H]1C[C@H](O)[C@@]1(C)C(=O)[C@H](O)C3=C(C)[C@@H](OC(=O)[C@H](O)[C@@H](NC(=O)OC(C)(C)C)c4ccccc4)C[C@@](O)([C@@H](OC(=O)c4ccccc4)[C@H]21)C3(C)C [Docetaxel] + c1cc(-c2cnn3cc(-c4ccc(OCCN5CCCCC5)cc4)cnc23)ccn1 [Dorsomorphin] (first compound 0.0001 µM, partner dose 0.4 µM)",235,558,503,99.8,1480,223,591,107,734,491,1100,128,229,189,158,428
"Cn1cnc2c(F)c(Nc3ccc(Br)cc3Cl)c(C(=O)NOCCO)cc21 [selumetinib] + CCc1ccc(CCOc2ccc(CC3SC(=O)NC3=O)cc2)nc1 [pioglitazone] (first compound 0.015 µM, partner dose 2 µM)",361,112,90.1,129,104,48.7,51.7,147,90.5,183,177,63.9,99.2,99.2,145,359
"CN(c1ncccc1CNc1nc(Nc2ccc3c(c2)CC(=O)N3)ncc1C(F)(F)F)S(C)(=O)=O + CCCCCCCCCCCC1=C(O)C(=O)C=C(O)C1=O [Embelin] (first compound 0.08 µM, partner dose 1.2 µM)",104,126,46.4,142,81.6,114,65.3,81.1,95.4,51.8,119,37.6,116,75.9,93.9,89.1
"CS(=O)(=O)c1ccc(C(=O)Nc2ccc(Cl)c(-c3ccccn3)c2)c(Cl)c1 [vismodegib] + COc1cc(Nc2ncc(F)c(Nc3ccc4c(n3)NC(=O)C(C)(C)O4)n2)cc(OC)c1OC [Tamatinib] (first compound 1 µM, partner dose 0.4 µM)",177,120,42.3,82.5,124,206,70.5,37.8,223,57.4,130,52.2,123,64.1,105,253
"COc1ccc(C2=N[C@@H](c3ccc(Cl)cc3)[C@@H](c3ccc(Cl)cc3)N2C(=O)N2CCNC(=O)C2)c(OC(C)C)c1 [Nutlin-3] + O=C(O)c1ccc(-c2c[nH]c3ncc(-c4ccccc4)cc23)cc1C1CCCC1 [GSK650394] (first compound 0.1 µM, partner dose 0.16 µM)",84.9,114,65.8,218,171,78.5,59.3,80.8,141,169,70.9,62.1,89.3,71.4,153,73.8
"Cn1sc(=O)n(Cc2ccccc2)c1=O + Cc1cc(N2CCOCC2)cc2[nH]c(-c3c(NC[C@@H](O)c4cccc(Cl)c4)cc[nH]c3=O)nc12 [BMS536924] (first compound 0.4 µM, partner dose 0.2 µM)",250,49.3,46.2,70.7,64.8,104,190,146,74.9,233,106,168,116,60.9,100,163
"CC(=O)O[C@@]12CO[C@@H]1C[C@H](O)[C@@]1(C)C(=O)[C@H](O)C3=C(C)[C@@H](OC(=O)[C@H](O)[C@@H](NC(=O)OC(C)(C)C)c4ccccc4)C[C@@](O)([C@@H](OC(=O)c4ccccc4)[C@H]21)C3(C)C [Docetaxel] + NC(=O)Nc1cc(-c2cccc(F)c2)sc1C(=O)N[C@H]1CCCNC1 [AZD7762] (first compound 0.0001 µM, partner dose 0.02 µM)",1240,1130,182,71.4,146,906,233,79.3,211,507,876,1090,152,134,267,166
"CC1(C)CCC(c2ccc(Cl)cc2)=C(CN2CCN(c3ccc(C(=O)NS(=O)(=O)c4ccc(N[C@H](CCN5CCOCC5)CSc5ccccc5)c(S(=O)(=O)C(F)(F)F)c4)cc3)CC2)C1 + COc1cc2ncnc(Nc3ccc(Oc4ccccc4)cc3)c2cc1OC [SrcI1] (first compound 0.4 µM, partner dose 2 µM)",144,289,85.6,319,179,173,131,96.2,143,242,262,300,315,71.4,91.2,1250
"CCN(CC)CCNC(=O)c1c(C)[nH]c(/C=C2\C(=O)Nc3ccc(F)cc32)c1C [sunitinib] + O=C(CCCCCCC(=O)Nc1ccccc1)NO [vorinostat] (first compound 0.4 µM, partner dose 0.08 µM)",69.5,112,81.2,69.9,65.1,51.6,83.8,137,248,86.4,44.4,32.7,107,74.3,75.2,92.8
"NC1(c2ccc(-c3nc4ccn5c(=O)[nH]nc5c4cc3-c3ccccc3)cc2)CCC1 + NC(=O)Nc1cc(-c2cccc(F)c2)sc1C(=O)N[C@H]1CCCNC1 [AZD7762] (first compound 0.4 µM, partner dose 0.02 µM)",59.5,98.2,67.9,112,116,93.1,73,94.9,34.8,81.8,243,212,105,69.6,108,151
"CC1(C)CCC(c2ccc(Cl)cc2)=C(CN2CCN(c3ccc(C(=O)NS(=O)(=O)c4ccc(N[C@H](CCN5CCOCC5)CSc5ccccc5)c(S(=O)(=O)C(F)(F)F)c4)cc3)CC2)C1 + NC(=O)Nc1cc(-c2cccc(F)c2)sc1C(=O)N[C@H]1CCCNC1 [AZD7762] (first compound 0.4 µM, partner dose 0.02 µM)",324,121,228,55.5,124,178,93.7,420,601,132,440,305,541,81.5,380,159
"Cn1cnc2c(F)c(Nc3ccc(Br)cc3Cl)c(C(=O)NOCCO)cc21 [selumetinib] + Oc1nc(-c2ccc(C(F)(F)F)cc2)nc2c1CSCC2 [XAV939] (first compound 0.015 µM, partner dose 2 µM)",264,131,38,53.2,199,94.2,126,84.2,109,270,153,147,472,87.1,105,135
"COc1ccc(C2=N[C@@H](c3ccc(Cl)cc3)[C@@H](c3ccc(Cl)cc3)N2C(=O)N2CCNC(=O)C2)c(OC(C)C)c1 [Nutlin-3] + C[C@@H]1CCN(C(=O)CC#N)C[C@@H]1N(C)c1ncnc2[nH]ccc12 [CP690550] (first compound 0.1 µM, partner dose 1 µM)",63.2,48,84.9,51.9,269,53.4,64.8,75.9,80.3,136,85,162,215,120,67.1,99.5

# Whole records as entered above. Values in the order: cleaved PARP positive nuclei fraction (MZ2-MEL) [%]	cleaved PARP positive nuclei fraction (MeWo) [%]	cleaved PARP positive nuclei fraction (RPMI7951) [%]	cleaved PARP positive nuclei fraction (RVH-421) [%]	cleaved PARP positive nuclei fraction (SkMel28) [%]	cleaved PARP positive nuclei fraction (SkMel2) [%]	cleaved PARP positive nuclei fraction (SkMel30) [%]	cleaved PARP positive nuclei fraction (SkMel5) [%]	cleaved PARP positive nuclei fraction (UACC257) [%]	cleaved PARP positive nuclei fraction (UACC62) [%]	cleaved PARP positive nuclei fraction (WM115) [%]	cleaved PARP positive nuclei fraction (WM1716) [%]	cleaved PARP positive nuclei fraction (WM1745) [%]	cleaved PARP positive nuclei fraction (WM3526) [%]	cleaved PARP positive nuclei fraction (WM3619) [%]	cleaved PARP positive nuclei fraction (WM451Lu) [%]
# CCN(CC)CCNC(=O)c1c(C)[nH]c(/C=C2\C(=O)Nc3ccc(F)cc32)c1C [sunitinib] + O=C(CCCCCCC(=O)Nc1ccccc1)NO [vorinostat] (first compound 0.4 µM, partner dose 0.08 µM) in the list: 69.5	112	81.2	69.9	65.1	51.6	83.8	137	248	86.4	44.4	32.7	107	74.3	75.2	92.8
# C[C@]1(O)C[C@@H](c2nc(-c3ccc4ccc(-c5ccccc5)nc4c3)c3c(N)nccn32)C1 + NCC(=O)Nc1ccc(-n2nc(C(F)(F)F)cc2-c2ccc3c(ccc4ccccc43)c2)cc1 [OSU03012] (first compound 0.4 µM, partner dose 1 µM) in the list: 92.8	62.6	58.8	205	237	139	124	80.4	195	168	48	149	122	247	140	145

# — the supplement of paper PMC4604168 (melanoma cell lines)
